In all, about 52,000 sequences went through this assay and about 210 (0.4%) were called active.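 Rule for the calls: active = gene whose silencing raises cell survival under the drug, median off-target-corrected z-score across its silencing RNAs 2 or more; inactive = the rest.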 Some of the results follow.
Assay: Resistance to Poly (ADP-Ribose) Polymerase inhibitor: Gene Identification via Genome-wide siRNA Screen
Settings: mouse BRCA2 R2336H ES cells, olaparib, CellTiter-Glo viability; hits give high values
Summary of the method: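 Mouse BRCA2 R2336H ES cells were reverse-transfected with siRNA (20 nM final), treated at 48 h with 500 nM olaparib, and read by CellTiter-Glo after 72 h. Scores: MAD-based z per siRNA, median per gene, seed off-target correction.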

Sequence | z-score
GGUCAAUUAAGAGAAAUGUTT against 4833417A11Rik | inactive: -0.0489
CCAUCAAACGGAUCCAGCATT against Rkhd1 | inactive: -2.66
GGUUUUCUCGCUCAGACCATT against Wt1 | inactive: -0.969
GCCUGUCCUGUGAUGACAUTT against Olfr406 | inactive: -2.3
CCCAGAUCAGAUUAUUUGGTT against 1700055N04Rik | inactive: 0.562
GGUGCUGCCAAGAUCUCUUTT against C230043N17Rik | inactive: -2.28
GGCUUACAGUUCCAUAUGGTT against Olfr401 | inactive: 1.13
GGUGAAAUGCUUGACUAAATT against 2510010F15Rik | inactive: -0.68
GGUCAUGAUACAUGAUCCATT against Htr7 | inactive: -0.0936
GCUAGGACUCAUAAUUUCCTT against Abcc4 | inactive: 0.386
GGAGGAAGAAUUUAUUGCATT against Ly6i | inactive: -0.64
GGUUAUGUUUUGUCACUCUTT against 1810073N04Rik | inactive: 0.362
GGGAUUCCAAAAGAAGAAGTT against Acat1 | inactive: -0.948
GGGAUACUUGGUGAAUUGGTT against Actr6 | inactive: -0.314
GGCCCUAACAAUUCAUGAUTT against 5730469D23Rik | inactive: -0.767
GGACAAUUGUGACCUCAGATT against BC025833 | inactive: -0.0716
CGAAAUGUUUGGUCAGAUCTT against Masp1 | inactive: 0.166
CCCUAUCGUGAUUUAUUGGTT against C130073F10Rik | inactive: 0.977
GGAGCUGAUCCUGAAUCACTT against Tpbg | inactive: 1.65
GGUAUCAGAGAGCACUUCATT against Surf2 | inactive: 1.63
GGAAAAUUCCAGAAACCAUTT against BC004636 | inactive: -0.421
GCGGCAACAUUCUCUUAAGTT against 1200013B22Rik | inactive: -0.522
GCUCAAUAGCUCAAAGUUUTT against 4833446K15Rik | inactive: 0.0247
GCUAAGCAUGAAAUUACCCTT against Pipox | inactive: -0.315
CCUGCUGCAUUAUGGUUGATT against Grn | inactive: -1.24
GCUCGUGGCAUGUCUCUAUTT against Doc2g | inactive: 0.144

Sequence | z-score
CCCUAACAAACCCUAUUAUTT against Jmjd3 | inactive: -1.74
CCAAUUGUACCUUAUCUGGTT against Tnfrsf4 | inactive: -0.771
GCGAUUAGGCAAGUUCCAATT against 2610208E05Rik | inactive: -0.413
CCAAUGGCGAGACAACUACTT against Aldoa | inactive: -1.96
CCAGGUGGGAUAAAUUGAATT against Rpusd4 | inactive: -0.654
CAUCGUGUGAAACUGGAGATT against BC036313 | inactive: 1.43
GGAAAAUAAGCUGAAAUUCTT against Pygl | inactive: 0.979
GGUAUGGAUGAAGAACUAGTT against Pdhb | inactive: 0.231
GGAUGGAUUCCCAGGAACATT against Crybb1 | inactive: 2.62
GGUUCCUCAUUUGUAGAUGTT against D830050J10Rik | inactive: 0.198
GCUCUUGUUAUACUUAACATT against Hr | inactive: -1.51
GCUAUUAUUGGGCUUUACCTT against Olfr341 | inactive: -0.625
GGACUUUCUUCACGUGUAUTT against 5730577I03Rik | inactive: 1.04
GGCACCAUGAACAAGUUACTT against Numbl | inactive: 2.61
CCACUAUUUAAUCUUACCGTT against Hoxc13 | inactive: 0.343
GGUCCAAAACUGUUCUUCUTT against Dfy | inactive: 0.66
GGCUUUUGGCAACAGCACUTT against Rbm14 | inactive: 1.13
GGAUGGACCGCAUUGAAAATT against 2900002H16Rik | inactive: 0.547
GCCCUUGGAAUUUACCACUTT against Aldh8a1 | inactive: -1.17
GCAGUUCAAGUCUUGAAUATT against Olfr934 | inactive: 2.02
CCGAUCAUUAUGAGCAUACTT against Nxf7 | inactive: -0.579
GUACACCACAAUCCUCACCTT against Olfr677 | inactive: 0.354
GGUAAGGGUCUCUUAUUGCTT against LOC545558 | inactive: 1.44
GCAGAGGAUAUAAAACAAGTT against Pde2a | active: 0.234
GCUUAAGUGUGAUACAGUGTT against Rarsl | inactive: -1.56
GGAGAAAUCAGAAUUUUUGTT against AA545217 | inactive: 1.17

Sequence | z-score
GGAUAAAGGACGAUGAGAUTT against BC026370 | inactive: 0.783
GGGUUAAACCACAUAUCCATT against 1700030K01Rik | inactive: 0.495
CGUUUUUUUCCUGAGCUAUTT against 2310061I09Rik | inactive: 1.53
GGCUUCUUUGUUGUUUGCATT against M6pr | inactive: -0.838
CGACCAGUCACAAUGGUUATT against Edil3 | inactive: 0.381
GUAUGGAUGUGGAAGCCUCTT against Olfr1417 | inactive: -0.497
GGGAAGGAGUUUUUGAAAATT against Tinf2 | inactive: -0.223
GGAGUUGUCUACCAAAGUUTT against Dp1 | inactive: -2.12
GGAGAACACAGGUGGACUUTT against Ppy | inactive: -0.976
GGUGCCAACAAUACUAAACTT against Phr1 | inactive: 1.82
GACAAGGCUUCAUAAAAAGTT against 2610028H07Rik | inactive: 0.648
GGACUCAAAACCAUUUACATT against 1200002N14Rik | inactive: 0.796
CGAUCAUGAGUCGAAGACUTT against Olfr1257 | inactive: 1.77
GGAGAAAGAUGUGCUCUGGTT against Il1rap | inactive: -0.258
GCUCAGUGGACAUGCUCUATT against Hpse | inactive: -1.16
CGGCAAGGUUUGAAUUUAGTT against D10Ucla1 | inactive: 1.26
GCCAGAUGCGAUUCUCAGGTT against C730034F03Rik | inactive: 0.296
GGUGAUGGGCAAGGUGUUCTT against Syvn1 | inactive: -0.0146
GGAAAGUGCAGGAGAACAGTT against Mettl2 | inactive: -1.79
CCUACACAGCUGAAAUGGUTT against Olfr710 | inactive: 1.06
GGUCAUAGCAUCUACGGCUTT against LOC215714 | inactive: 1.17
GGACUAUCUUUAUGAUGUGTT against Ush1c | inactive: -0.547
GGCAUUUGACUUUAUUGCATT against Nit1 | inactive: -0.326
GCUUGAAGCGAGACGAUACTT against Bhlhb3 | inactive: 2.98
GGAUGACAUCCAGACCAUGTT against 1810009B06Rik | inactive: 0.483
GGGCUCUUGCCAGAAAACGTT against Rshl2 | inactive: 0.0505

As a working copy, some entries already given.
Sequence | z-score
GCAGUUCAAGUCUUGAAUATT against Olfr934 | inactive: 2.02
CCGAUCAUUAUGAGCAUACTT against Nxf7 | inactive: -0.579
GUACACCACAAUCCUCACCTT against Olfr677 | inactive: 0.354
GGUAAGGGUCUCUUAUUGCTT against LOC545558 | inactive: 1.44
GCAGAGGAUAUAAAACAAGTT against Pde2a | active: 0.234
GCUUAAGUGUGAUACAGUGTT against Rarsl | inactive: -1.56
GGAGAAAUCAGAAUUUUUGTT against AA545217 | inactive: 1.17
GGAUAAAGGACGAUGAGAUTT against BC026370 | inactive: 0.783
GGGUUAAACCACAUAUCCATT against 1700030K01Rik | inactive: 0.495
CGUUUUUUUCCUGAGCUAUTT against 2310061I09Rik | inactive: 1.53
GGCUUCUUUGUUGUUUGCATT against M6pr | inactive: -0.838
CGACCAGUCACAAUGGUUATT against Edil3 | inactive: 0.381
GUAUGGAUGUGGAAGCCUCTT against Olfr1417 | inactive: -0.497
GGGAAGGAGUUUUUGAAAATT against Tinf2 | inactive: -0.223
GGAGUUGUCUACCAAAGUUTT against Dp1 | inactive: -2.12
GGAGAACACAGGUGGACUUTT against Ppy | inactive: -0.976
GGUGCCAACAAUACUAAACTT against Phr1 | inactive: 1.82
GACAAGGCUUCAUAAAAAGTT against 2610028H07Rik | inactive: 0.648
GGACUCAAAACCAUUUACATT against 1200002N14Rik | inactive: 0.796
CGAUCAUGAGUCGAAGACUTT against Olfr1257 | inactive: 1.77
GGAGAAAGAUGUGCUCUGGTT against Il1rap | inactive: -0.258
GCUCAGUGGACAUGCUCUATT against Hpse | inactive: -1.16
CGGCAAGGUUUGAAUUUAGTT against D10Ucla1 | inactive: 1.26
GCCAGAUGCGAUUCUCAGGTT against C730034F03Rik | inactive: 0.296
GGUGAUGGGCAAGGUGUUCTT against Syvn1 | inactive: -0.0146
GGAAAGUGCAGGAGAACAGTT against Mettl2 | inactive: -1.79
CCUACACAGCUGAAAUGGUTT against Olfr710 | inactive: 1.06
GGUCAUAGCAUCUACGGCUTT against LOC215714 | inactive: 1.17
GGACUAUCUUUAUGAUGUGTT against Ush1c | inactive: -0.547
GGCAUUUGACUUUAUUGCATT against Nit1 | inactive: -0.326
GCUUGAAGCGAGACGAUACTT against Bhlhb3 | inactive: 2.98
GGAUGACAUCCAGACCAUGTT against 1810009B06Rik | inactive: 0.483

Further records follow.

Sequence | z-score
GGAGAUUACCAGGUAUCAGTT against Ptpn21 | inactive: -0.143
GGUUCGUUUGCAUUGGAAUTT against Cysltr1 | inactive: -0.728
GCUUAUUAACCACUACCACTT against Pik3r3 | inactive: 0.193
GUUUAUCCACAUUGCCUUCTT against Olfr559 | inactive: -1.48
GCCGUUACCGAUCUCUCCATT against Zfp61 | inactive: -0.435
GGUGUUCCUUUCACGAACATT against 5330427M13Rik | inactive: -0.371
GCUGAUGUGAACUCAUCAUTT against Usmg5 | inactive: 0.765
GGAAAUAGACACCAAGAGCTT against 9130404D08Rik | inactive: 0.368
GGAUCUGAAGAUGAUGAACTT against 9030624L02Rik | inactive: 0.339
GCUUCAUCCACCAUUAAUCTT against Rabgap1 | inactive: 1.71
GGGUUUUCACUCAAAAAAATT against Aup1 | inactive: 1.8
GGAAUAAGGAAGUAAAGAUTT against Olfr958 | inactive: -0.0544
GGAAAUGACAUCUUCCUUGTT against 2410006N06Rik | inactive: 0.694
GGUUCGGCUCAUCUACCAATT against 2010004O20Rik | inactive: 1.12
CGAUGAAGCCGGAUUGAGATT against 1700010H22Rik | inactive: 0.459
CCACCGGAAUGACAUAAUGTT against 2310015I08Rik | inactive: 0.829
GGAUGUGGUUCAGAAGGCCTT against Stab1 | inactive: 1.22
GGGAAGAGCAGAAGUCUGUTT against Myod1 | inactive: 1.67
CGCGAUGGAACCAUAGUCATT against Nagpa | inactive: -0.0821
GCCAUUCUAAGAGGGCCUCTT against Stk10 | inactive: 0.0504
GGAGUUUUCAAAAAACAGATT against Dsc2 | inactive: 1.45
GCUUGGAGAUGAACUCUAATT against Olfr533 | inactive: -1.41
GCUCGAGUACCUGUACCUATT against A930017N06Rik | inactive: -0.921
GGCAUGCCUGUUGCUAUGATT against Cyp3a44 | inactive: -1.71
GGCUUCAAACACUUCCUUGTT against D030001E08 | inactive: 0.314
